{"source": "patent US11065203B2", "about": "“Liposomal compositions and uses of same” (Technion Research & Development Foundation Limited, priority 2009, dated 2021)", "molecules": {"B1": {"name": "P61026 (protein, UniProt P61026 1-200, looked up)", "chain": "MAKKTYDLLFKLLLIGDSGVGKTCVLFRFSDDAFNTTFISTIGIDFKIKTVELQGKKIKLQIWDTAGQERFHTITTSYYRGAMGIMLVYDITNGKSFENISKWLRNIDEHANEDVERMLLGNKCDMDDKRVVPKGKGEQIAREHGIRFFETSAKANINIEKAFLTLAEDILRKTPVKEPNSENVDISSGGGVTGWKSKCC", "modifications": "full-length"}, "B2": {"name": "P11166 (protein, UniProt P11166 1-492, looked up)", "chain": "MEPSSKKLTGRLMLAVGGAVLGSLQFGYNTGVINAPQKVIEEFYNQTWVHRYGESILPTTLTTLWSLSVAIFSVGGMIGSFSVGLFVNRFGRRNSMLMMNLLAFVSAVLMGFSKLGKSFEMLILGRFIIGVYCGLTTGFVPMYVGEVSPTALRGALGTLHQLGIVVGILIAQVFGLDSIMGNKDLWPLLLSIIFIPALLQCIVLPFCPESPRFLLINRNEENRAKSVLKKLRGTADVTHDLQEMKEESRQMMREKKVTILELFRSPAYRQPILIAVVLQLSQQLSGINAVFYYSTSIFEKAGVQQPVYATIGSGIVNTAFTVVSLFVVERAGRRTLHLIGLAGMAGCAILMTIALALLEQLPWMSYLSIVAIFGFVAFFEVGPGPIPWFIVAELFSQGPRPAAIAVAGFSNWTSNFIVGMCFQYVEQLCGPYVFIIFTVLLVLFFIFTYFKVPETKGRTFDEIASGFRQGGASQSDKTPEELFHPLGADSQV", "modifications": "full-length"}, "B3": {"name": "P35221 (protein, UniProt P35221 1-906, looked up)", "chain": "MTAVHAGNINFKWDPKSLEIRTLAVERLLEPLVTQVTTLVNTNSKGPSNKKRGRSKKAHVLAASVEQATENFLEKGDKIAKESQFLKEELVAAVEDVRKQGDLMKAAAGEFADDPCSSVKRGNMVRAARALLSAVTRLLILADMADVYKLLVQLKVVEDGILKLRNAGNEQDLGIQYKALKPEVDKLNIMAAKRQQELKDVGHRDQMAAARGILQKNVPILYTASQACLQHPDVAAYKANRDLIYKQLQQAVTGISNAAQATASDDASQHQGGGGGELAYALNNFDKQIIVDPLSFSEERFRPSLEERLESIISGAALMADSSCTRDDRRERIVAECNAVRQALQDLLSEYMGNAGRKERSDALNSAIDKMTKKTRDLRRQLRKAVMDHVSDSFLETNVPLLVLIEAAKNGNEKEVKEYAQVFREHANKLIEVANLACSISNNEEGVKLVRMSASQLEALCPQVINAALALAAKPQSKLAQENMDLFKEQWEKQVRVLTDAVDDITSIDDFLAVSENHILEDVNKCVIALQEKDVDGLDRTAGAIRGRAARVIHVVTSEMDNYEPGVYTEKVLEATKLLSNTVMPRFTEQVEAAVEALSSDPAQPMDENEFIDASRLVYDGIRDIRKAVLMIRTPEELDDSDFETEDFDVRSRTSVQTEDDQLIAGQSARAIMAQLPQEQKAKIAEQVASFQEEKSKLDAEVSKWDDSGNDIIVLAKQMCMIMMEMTDFTRGKGPLKNTSDVISAAKKIAEAGSRMDKLGRTIADHCPDSACKQDLLAYLQRIALYCHQLNICSKVKAEVQNLGGELVVSGVDSAMSLIQAAKNLMNAVVQTVKASYVASTKYQKSQGMASLNLPAVSWKMKAPEKKPLVKREKQDETQTKIKRASQKKHVNPVQALSEFKAMDSI", "modifications": "full-length"}, "B4": {"name": "Q9UBG0 (protein, UniProt Q9UBG0 1-1479, looked up)", "chain": "MGPGRPAPAPWPRHLLRCVLLLGCLHLGRPGAPGDAALPEPNVFLIFSHGLQGCLEAQGGQVRVTPACNTSLPAQRWKWVSRNRLFNLGTMQCLGTGWPGTNTTASLGMYECDREALNLRWHCRTLGDQLSLLLGARTSNISKPGTLERGDQTRSGQWRIYGSEEDLCALPYHEVYTIQGNSHGKPCTIPFKYDNQWFHGCTSTGREDGHLWCATTQDYGKDERWGFCPIKSNDCETFWDKDQLTDSCYQFNFQSTLSWREAWASCEQQGADLLSITEIHEQTYINGLLTGYSSTLWIGLNDLDTSGGWQWSDNSPLKYLNWESDQPDNPSEENCGVIRTESSGGWQNRDCSIALPYVCKKKPNATAEPTPPDRWANVKVECEPSWQPFQGHCYRLQAEKRSWQESKKACLRGGGDLVSIHSMAELEFITKQIKQEVEELWIGLNDLKLQMNFEWSDGSLVSFTHWHPFEPNNFRDSLEDCVTIWGPEGRWNDSPCNQSLPSICKKAGQLSQGAAEEDHGCRKGWTWHSPSCYWLGEDQVTYSEARRLCTDHGSQLVTITNRFEQAFVSSLIYNWEGEYFWTALQDLNSTGSFFWLSGDEVMYTHWNRDQPGYSRGGCVALATGSAMGLWEVKNCTSFRARYICRQSLGTPVTPELPGPDPTPSLTGSCPQGWASDTKLRYCYKVFSSERLQDKKSWVQAQGACQELGAQLLSLASYEEEHFVANMLNKIFGESEPEIHEQHWFWIGLNRRDPRGGQSWRWSDGVGFSYHNFDRSRHDDDDIRGCAVLDLASLQWVAMQCDTQLDWICKIPRGTDVREPDDSPQGRREWLRFQEAEYKFFEHHSTWAQAQRICTWFQAELTSVHSQAELDFLSHNLQKFSRAQEQHWWIGLHTSESDGRFRWTDGSIINFISWAPGKPRPVGKDKKCVYMTASREDWGDQRCLTALPYICKRSNVTKETQPPDLPTTALGGCPSDWIQFLNKCFQVQGQEPQSRVKWSEAQFSCEQQEAQLVTITNPLEQAFITASLPNVTFDLWIGLHASQRDFQWVEQEPLMYANWAPGEPSGPSPAPSGNKPTSCAVVLHSPSAHFTGRWDDRSCTEETHGFICQKGTDPSLSPSPAALPPAPGTELSYLNGTFRLLQKPLRWHDALLLCESRNASLAYVPDPYTQAFLTQAARGLRTPLWIGLAGEEGSRRYSWVSEEPLNYVGWQDGEPQQPGGCTYVDVDGAWRTTSCDTKLQGAVCGVSSGPPPPRRISYHGSCPQGLADSAWIPFREHCYSFHMELLLGHKEARQRCQRAGGAVLSILDEMENVFVWEHLQSYEGQSRGAWLGMNFNPKGGTLVWQDNTAVNYSNWGPPGLGPSMLSHNSCYWIQSNSGLWRPGACTNITMGVVCKLPRAEQSSFSPSALPENPAALVVVLMAVLLLLALLTAALILYRRRQSIERGAFEGARYSRSSSSPTEATEKNILVSDMEMNEQQE", "modifications": "full-length"}, "B5": {"name": "Q02218 (protein, UniProt Q02218 1-1023, looked up)", "chain": "MFHLRTCAAKLRPLTASQTVKTFSQNRPAAARTFQQIRCYSAPVAAEPFLSGTSSNYVEEMYCAWLENPKSVHKSWDIFFRNTNAGAPPGTAYQSPLPLSRGSLAAVAHAQSLVEAQPNVDKLVEDHLAVQSLIRAYQIRGHHVAQLDPLGILDADLDSSVPADIISSTDKLGFYGLDESDLDKVFHLPTTTFIGGQESALPLREIIRRLEMAYCQHIGVEFMFINDLEQCQWIRQKFETPGIMQFTNEEKRTLLARLVRSTRFEEFLQRKWSSEKRFGLEGCEVLIPALKTIIDKSSENGVDYVIMGMPHRGRLNVLANVIRKELEQIFCQFDSKLEAADEGSGDVKYHLGMYHRRINRVTDRNITLSLVANPSHLEAADPVVMGKTKAEQFYCGDTEGKKVMSILLHGDAAFAGQGIVYETFHLSDLPSYTTHGTVHVVVNNQIGFTTDPRMARSSPYPTDVARVVNAPIFHVNSDDPEAVMYVCKVAAEWRSTFHKDVVVDLVCYRRNGHNEMDEPMFTQPLMYKQIRKQKPVLQKYAELLVSQGVVNQPEYEEEISKYDKICEEAFARSKDEKILHIKHWLDSPWPGFFTLDGQPRSMSCPSTGLTEDILTHIGNVASSVPVENFTIHGGLSRILKTRGEMVKNRTVDWALAEYMAFGSLLKEGIHIRLSGQDVERGTFSHRHHVLHDQNVDKRTCIPMNHLWPNQAPYTVCNSSLSEYGVLGFELGFAMASPNALVLWEAQFGDFHNTAQCIIDQFICPGQAKWVRQNGIVLLLPHGMEGMGPEHSSARPERFLQMCNDDPDVLPDLKEANFDINQLYDCNWVVVNCSTPGNFFHVLRRQILLPFRKPLIIFTPKSLLRHPEARSSFDEMLPGTHFQRVIPEDGPAAQNPENVKRLLFCTGKVYYDLTRERKARDMVGQVAITRIEQLSPFPFDLLLKEVQKYPNAELAWCQEEHKNQGYYDYVKPRLRTTISRAKPVWYAGRDPAAAPATGNKKTHLTELQRLLDTAFDLDVFKNFS", "modifications": "full-length"}, "B6": {"name": "P04216 (protein, UniProt P04216 1-161, looked up)", "chain": "MNLAISIALLLTVLQVSRGQKVTSLTACLVDQSLRLDCRHENTSSSPIQYEFSLTRETKKHVLFGTVGVPEHTYRSRTNFTSKYNMKVLYLSAFTSKDEGTYTCALHHSGHSPPISSQNVTVLRDKLVKCEGISLLAQNTSWLLLLLLSLSLLQATDFMSL", "modifications": "full-length"}, "B7": {"name": "P14927 (protein, UniProt P14927 1-111, looked up)", "chain": "MAGKQAVSASGKWLDGIRKWYYNAAGFNKLGLMRDDTIYEDEDVKEAIRRLPENLYNDRMFRIKRALDLNLKHQILPKEQWTKYEEENFYLEPYLKEVIRERKEREEWAKK", "modifications": "full-length"}, "B8": {"name": "P22626 (protein, UniProt P22626 1-353, looked up)", "chain": "MEKTLETVPLERKKREKEQFRKLFIGGLSFETTEESLRNYYEQWGKLTDCVVMRDPASKRSRGFGFVTFSSMAEVDAAMAARPHSIDGRVVEPKRAVAREESGKPGAHVTVKKLFVGGIKEDTEEHHLRDYFEEYGKIDTIEIITDRQSGKKRGFGFVTFDDHDPVDKIVLQKYHTINGHNAEVRKALSRQEMQEVQSSRSGRGGNFGFGDSRGGGGNFGPGPGSNFRGGSDGYGSGRGFGDGYNGYGGGPGGGNFGGSPGYGGGRGGYGGGGPGYGNQGGGYGGGYDNYGGGNYGSGNYNDFGNYNQQPSNYGPMKSGNFGGSRNMGGPYGGGNYGPGGSGGSGGYGGRSRY", "modifications": "full-length"}, "B9": {"name": "Q99584 (protein, UniProt Q99584 1-98, looked up)", "chain": "MAAEPLTELEESIETVVTTFFTFARQEGRKDSLSVNEFKELVTQQLPHLLKDVGSLDEKMKSLDVNQDSELKFNEYWRLIGELAKEIRKKKDLKIRKK", "modifications": "full-length"}, "B10": {"name": "P07099 (protein, UniProt P07099 1-455, looked up)", "chain": "MWLEILLTSVLGFAIYWFISRDKEETLPLEDGWWGPGTRSAAREDDSIRPFKVETSDEEIHDLHQRIDKFRFTPPLEDSCFHYGFNSNYLKKVISYWRNEFDWKKQVEILNRYPHFKTKIEGLDIHFIHVKPPQLPAGHTPKPLLMVHGWPGSFYEFYKIIPLLTDPKNHGLSDEHVFEVICPSIPGYGFSEASSKKGFNSVATARIFYKLMLRLGFQEFYIQGGDWGSLICTNMAQLVPSHVKGLHLNMALVLSNFSTLTLLLGQRFGRFLGLTERDVELLYPVKEKVFYSLMRESGYMHIQCTKPDTVGSALNDSPVGLAAYILEKFSTWTNTEFRYLEDGGLERKFSLDDLLTNVMLYWTTGTIISSQRFYKENLGQGWMTQKHERMKVYVPTGFSAFPFELLHTPEKWVRFKYPKLISYSYMVRGGHFAAFEEPELLAQDIRKFLSVLERQ", "modifications": "full-length"}}, "assay": "Proteomics analysis (trypsin digest, LC-MS/MS) of hMSC ghosts and derived CDLs, conditioned or unconditioned by PC3 medium", "set-up": "species or system human", "conditions": "LC-MS/MS peak area per protein; for Ratio of expression Cond. CDLs/Cond. Ghosts: CDLs derived from conditioned hMSCs versus conditioned ghosts; for Ratio of expression Cond Ghosts/Ghosts: hMSC ghosts conditioned by PC3 medium versus unconditioned ghosts", "data": [{"molecule": "B1", "values": [{"measurement": "Ratio of expression Cond. CDLs/Cond. Ghosts", "result": 7, "unit": "%"}, {"measurement": "Ratio of expression Cond Ghosts/Ghosts", "result": 100, "unit": "%"}]}, {"molecule": "B2", "values": [{"measurement": "Ratio of expression Cond. CDLs/Cond. Ghosts", "result": 9, "unit": "%"}, {"measurement": "Ratio of expression Cond Ghosts/Ghosts", "result": 100, "unit": "%"}]}, {"molecule": "B3", "values": [{"measurement": "Ratio of expression Cond. CDLs/Cond. Ghosts", "result": 7, "unit": "%"}, {"measurement": "Ratio of expression Cond Ghosts/Ghosts", "result": 100, "unit": "%"}]}, {"molecule": "B4", "values": [{"measurement": "Ratio of expression Cond. CDLs/Cond. Ghosts", "result": 7, "unit": "%"}, {"measurement": "Ratio of expression Cond Ghosts/Ghosts", "result": 100, "unit": "%"}]}, {"molecule": "B5", "values": [{"measurement": "Ratio of expression Cond. CDLs/Cond. Ghosts", "result": 8, "unit": "%"}, {"measurement": "Ratio of expression Cond Ghosts/Ghosts", "result": 100, "unit": "%"}]}, {"molecule": "B6", "values": [{"measurement": "Ratio of expression Cond. CDLs/Cond. Ghosts", "result": 7, "unit": "%"}, {"measurement": "Ratio of expression Cond Ghosts/Ghosts", "result": 100, "unit": "%"}]}, {"molecule": "B7", "values": [{"measurement": "Ratio of expression Cond. CDLs/Cond. Ghosts", "result": 8, "unit": "%"}, {"measurement": "Ratio of expression Cond Ghosts/Ghosts", "result": 100, "unit": "%"}]}, {"molecule": "B8", "values": [{"measurement": "Ratio of expression Cond. CDLs/Cond. Ghosts", "result": 7, "unit": "%"}, {"measurement": "Ratio of expression Cond Ghosts/Ghosts", "result": 100, "unit": "%"}]}, {"molecule": "B9", "values": [{"measurement": "Ratio of expression Cond. CDLs/Cond. Ghosts", "result": 9, "unit": "%"}, {"measurement": "Ratio of expression Cond Ghosts/Ghosts", "result": 100, "unit": "%"}]}, {"molecule": "B10", "values": [{"measurement": "Ratio of expression Cond. CDLs/Cond. Ghosts", "result": 7, "unit": "%"}, {"measurement": "Ratio of expression Cond Ghosts/Ghosts", "result": 100, "unit": "%"}]}]}
